Reference: publication PMC10400976
No constants are given. Whether binding was seen depends on the method and setting. Binding seen in cells or lysates may run through a third protein. Some binding calls cover weakened binding; strength is not graded here. Sequences can lack the tags named with a protein.

Amino acid sequences for entries named in this document (tags omitted). Residues count along the entry.
UniProt P11021, residues 19-654: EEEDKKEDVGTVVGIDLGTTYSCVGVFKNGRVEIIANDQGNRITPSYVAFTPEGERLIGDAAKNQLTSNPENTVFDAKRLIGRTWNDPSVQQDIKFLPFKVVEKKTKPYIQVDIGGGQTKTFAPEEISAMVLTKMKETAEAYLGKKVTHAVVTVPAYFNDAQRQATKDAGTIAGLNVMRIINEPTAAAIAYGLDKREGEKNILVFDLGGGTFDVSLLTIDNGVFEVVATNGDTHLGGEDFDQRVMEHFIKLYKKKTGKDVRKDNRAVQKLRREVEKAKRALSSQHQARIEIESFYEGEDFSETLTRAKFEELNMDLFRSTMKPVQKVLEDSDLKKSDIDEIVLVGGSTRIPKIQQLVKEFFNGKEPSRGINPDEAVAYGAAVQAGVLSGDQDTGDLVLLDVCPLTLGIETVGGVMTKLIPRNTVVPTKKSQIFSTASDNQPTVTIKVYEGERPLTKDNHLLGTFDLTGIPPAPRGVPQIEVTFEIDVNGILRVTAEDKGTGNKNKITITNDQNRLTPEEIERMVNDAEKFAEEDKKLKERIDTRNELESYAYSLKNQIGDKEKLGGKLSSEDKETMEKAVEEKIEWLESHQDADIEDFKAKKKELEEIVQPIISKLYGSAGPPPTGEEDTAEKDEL

Tests used:
[1] = molecular target: T1, ID2-Myc-FLAG (Inhibitor of DNA binding 2, epitope-tagged) (UniProt Q02363); assay: co-IP; HEK293AD cells transfected with ID2-Myc-FLAG; IP with IgG or anti-FLAG antibodies; precipitates probed for GRP78 and Myc(ID2)
T1 sequence: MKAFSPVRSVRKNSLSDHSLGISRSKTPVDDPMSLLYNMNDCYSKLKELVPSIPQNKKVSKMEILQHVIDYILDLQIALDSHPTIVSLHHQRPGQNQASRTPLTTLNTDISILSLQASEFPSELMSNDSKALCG

[2] = molecular target: T1, ID2-Myc-FLAG (Inhibitor of DNA binding 2, epitope-tagged); assay: proximity ligation; HEK293AD cells transfected with GRP78(WT)-GFP or GRP78(NLS Mut)-GFP together with ID2-Myc-FLAG; antibodies against GFP and FLAG; confocal fluorescence; reveals interactions at distances <40 nm

| Substance | binding [1] | binding [2] |
| --- | --- | --- |
| 78-kDa glucose-regulated protein (GRP78), endogenous (from UniProt P11021 19-654) | binds |  |
| GRP78(WT)-GFP (from UniProt P11021 19-654) |  | binds |
